Experimental data: PubChem BioAssay AID1671195 (Yale University, 2021)
In all, the deposit lists about 22,000 reagents; shown is a part drawn at random. Over the whole deposit, about 1,510 (6.9%) were called active. 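Active includes knockdowns raising or lowering LDL uptake; positive z-scores mean more uptake, negative mean less.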 The numbers tell different reagents against one gene apart.

- Test: 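Knockdowns that increase or decrease uptake of fluorescent LDL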 (primary screen)
- Cell system: human Huh7 hepatoma cells
- Knock-down reagent: siRNA pool against human genes, 18 nM
- Timing: about 2 to 2.5 days of knockdown, then 8 h LDL uptake
- Treatment: DiI-labelled LDL at 30 µg/ml for 8 h, in lipoprotein-deficient serum medium
- Detection: 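Fluorescent LDL signal imaged in cells, scaled to the plate median, robust z-score for each replicate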
- Scale: robust z-score: higher = more LDL uptake after knockdown
- Rule for the call: 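a gene counts as active if at least two replicate z-scores exceed ±2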

gene | reagent no. | robust z-score, replicate 1 | robust z-score, replicate 2 | robust z-score, replicate 3 | activity call
TMA7 (translation machinery associated 7 homolog) | 1 | 0.0471 | 1.12 | 0.195 | inactive
CREB3L4 (cAMP responsive element binding protein 3 like 4) | 1 | -0.715 | -0.858 | -1.25 | inactive
HEXD (hexosaminidase D) | 1 | -0.696 | -0.844 | -0.835 | inactive
GPR158 (G protein-coupled receptor 158) | 1 | -2.2 | -1.6 | -0.403 | inactive
CLCN3 (Cl-/H+ antiporter 3) | 1 | -0.518 | -0.83 | -0.336 | inactive
FAM209A (family with sequence similarity 209 member A) | 1 | 1.13 | 1.51 | 1.35 | inactive
NISCH (nischarin) | 1 | 0.00963 | 0.21 | 1.21 | inactive
GPR183 (G protein-coupled receptor 183) | 1 | 0.395 | 0.866 | 0.828 | inactive
IPPK (inositol-pentakisphosphate 2-kinase) | 1 | 1.49 | -0.506 | 0.00849 | inactive
PLIN5 (perilipin 5) | 1 | -1.04 | -0.989 | -1.02 | inactive
LOC440840 (retired record) | 1 | -2.13 | -0.682 | -0.912 | inactive
KIF27 (kinesin family member 27) | 1 | 0.866 | 1.36 | 0.112 | inactive
SPACA4 (sperm acrosome associated 4) | 1 | -0.468 | -0.502 | -0.565 | inactive
OR5M9 (olfactory receptor family 5 subfamily M member 9) | 1 | 0.0562 | 0.502 | 1.2 | inactive
TSR1 (TSR1 ribosome maturation factor) | 1 | 0.927 | 2.65 | 1.58 | inactive
MAPK1IP1L | 1 | 0.174 | 0.204 | -0.153 | inactive
IL18BP (interleukin 18 binding protein) | 1 | -0.414 | -0.571 | -0.822 | inactive
LOC440281 (retired record) | 1 | -0.0153 | 0.201 | 0.0215 | inactive
MARCHF2 (membrane associated ring-CH-type finger 2) | 1 | -2.65 | -1.37 | -1.86 | active
LOC440873 (retired record) | 1 | -0.0608 | -0.442 | -0.133 | inactive
KLF12 (KLF transcription factor 12) | 1 | -0.226 | 0.191 | 0.0497 | inactive
VTI1A (vesicle transport through interaction with t-SNAREs 1A) | 1 | 0.0419 | 0.794 | -0.0264 | inactive
VTI1A (vesicle transport through interaction with t-SNAREs 1A) | 2 | -0.101 | -1.29 | 0.0708 | inactive
RNF20 (ring finger protein 20) | 1 | -0.539 | 0.394 | -0.735 | inactive
MOCS3 (molybdenum cofactor synthesis 3) | 1 | -0.507 | -0.209 | -0.65 | inactive
GLMN (glomulin) | 1 | 0.428 | 0.753 | 0.266 | inactive
ADRA1B (adrenoceptor alpha 1B) | 1 | 0.66 | 0.248 | 0.195 | inactive
GPRIN2 (G protein regulated inducer of neurite outgrowth 2) | 1 | -0.0597 | -0.764 | -1.32 | inactive
LOC150580 (retired record) | 1 | 0.597 | -0.161 | 0.313 | inactive
POLR1F (RNA polymerase I subunit F) | 1 | 0.525 | 0.532 | 0.981 | inactive
OR2G3 (olfactory receptor family 2 subfamily G member 3) | 1 | -1.45 | -1.5 | -1.55 | inactive
LCN1 (lipocalin 1) | 1 | 0.332 | 0.978 | 0.807 | inactive
FAM24A (family with sequence similarity 24 member A) | 1 | 0.128 | -0.153 | -0.474 | inactive
KLHL30-AS1 (KLHL30 antisense RNA 1) | 1 | -0.624 | -0.678 | -0.714 | inactive
ASTN2 (astrotactin 2) | 1 | 2.66 | 0.372 | 2.26 | active
PIBF1 (progesterone immunomodulatory binding factor 1) | 1 | -0.308 | 1.17 | -0.776 | inactive
MYL11 (myosin light chain 11) | 1 | -0.308 | -0.708 | -0.688 | inactive
BLVRA (biliverdin reductase A) | 1 | 0.0106 | 0.462 | -0.447 | inactive
MINAR1 (membrane integral NOTCH2 associated receptor 1) | 1 | 0.265 | 0.00347 | 0.0144 | inactive
RSPH6A (radial spoke head 6 homolog A) | 1 | 0.298 | 0.25 | -0.0219 | inactive
RBM15B (RNA binding motif protein 15B) | 1 | 1.55 | 1.2 | 1.6 | inactive

Continued (6 carried over from the part before).
gene | reagent no. | robust z-score, replicate 1 | robust z-score, replicate 2 | robust z-score, replicate 3 | activity call
PIBF1 (progesterone immunomodulatory binding factor 1) | 1 | -0.308 | 1.17 | -0.776 | inactive
MYL11 (myosin light chain 11) | 1 | -0.308 | -0.708 | -0.688 | inactive
BLVRA (biliverdin reductase A) | 1 | 0.0106 | 0.462 | -0.447 | inactive
MINAR1 (membrane integral NOTCH2 associated receptor 1) | 1 | 0.265 | 0.00347 | 0.0144 | inactive
RSPH6A (radial spoke head 6 homolog A) | 1 | 0.298 | 0.25 | -0.0219 | inactive
RBM15B (RNA binding motif protein 15B) | 1 | 1.55 | 1.2 | 1.6 | inactive
NEDD1 (NEDD1 gamma-tubulin ring complex targeting factor) | 1 | 1.78 | 1.52 | 0.418 | inactive
FXYD1 (FXYD domain containing ion transport regulator 1) | 1 | 0.191 | 0.502 | 0.321 | inactive
ARHGEF1 (Rho guanine nucleotide exchange factor 1) | 1 | 0.454 | 0.0607 | 0.284 | inactive
MRPS15 (mitochondrial ribosomal protein S15) | 1 | 1.21 | 0.895 | 1.11 | inactive
PLEKHO2 (pleckstrin homology domain containing O2) | 1 | 3.27 | 2.11 | 3.02 | active
LOC400600 (retired record) | 1 | -0.513 | -0.386 | -0.669 | inactive
MOB4 (MOB family member 4, phocein) | 1 | 0.0812 | -0.0706 | 0.00614 | inactive
LOC388180 (retired record) | 1 | -0.0997 | -0.288 | -0.59 | inactive
LOC390827 (retired record) | 1 | -0.633 | -1.04 | -0.978 | inactive
AAK1 (AP2 associated kinase 1) | 1 | 2.37 | 1.39 | 1.41 | inactive
AAK1 (AP2 associated kinase 1) | 2 | 0.357 | -0.0825 | 0.0785 | inactive
TSTD2 (thiosulfate sulfurtransferase like domain containing 2) | 1 | -0.137 | -1.62 | -0.28 | inactive
KDM4B (lysine demethylase 4B) | 1 | -0.596 | -1.2 | -0.625 | inactive
OR4C46 (olfactory receptor family 4 subfamily C member 46) | 1 | -0.123 | -0.503 | -0.54 | inactive
STS (steroid sulfatase) | 1 | 0.407 | -0.341 | 0.176 | inactive
OR52H1 (olfactory receptor family 52 subfamily H member 1) | 1 | 0.816 | 0.439 | 0.494 | inactive
OR52W1 (olfactory receptor family 52 subfamily W member 1) | 1 | -0.252 | 1.23 | 1.76 | inactive
MISP3 (MISP family member 3) | 1 | -0.824 | 0.0886 | -0.459 | inactive
GLIS2 (GLIS family zinc finger 2) | 1 | -1.85 | -2.48 | -2.31 | active
CTH (cystathionine gamma-lyase) | 1 | -0.15 | 0.919 | 0.266 | inactive
SNAP47 (synaptosome associated protein 47) | 1 | -0.662 | 0.604 | 0.963 | inactive
FIZ1 (FLT3 interacting zinc finger 1) | 1 | -0.54 | -1.08 | -0.894 | inactive
CYRIB (CYFIP related Rac1 interactor B) | 1 | 0.527 | 0.864 | 1.77 | inactive
MAP3K20 (mitogen-activated protein kinase kinase kinase 20) | 1 | 0.0618 | -0.669 | -0.408 | inactive
SYTL1 (synaptotagmin like 1) | 1 | -0.293 | -0.18 | -0.353 | inactive
ACER1 (alkaline ceramidase 1) | 1 | -0.748 | -1.2 | -1.08 | inactive
TARDBP (TAR DNA binding protein) | 1 | -0.423 | 1.56 | 0.458 | inactive
